PubChem BioAssay AID2417 (National Center for Advancing Translational Sciences (NCATS), 2010)
Hit rate of the full screen: of about 140,000 compounds, about 4,300 (3.1%) were called active. This list was built around the results that the source calls inconclusive (neither active nor inactive); the mix of calls is not that of the screen.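 The calls were made as follows: active = readout at or below -70, meaning at least 70% loss of cells showing the perinucleolar compartment, a nuclear body marking cancer cells; inconclusive = readout between -30 and a set limit; inactive = the rest.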

Experiment: High Content Assay for Compounds that inhibit the Assembly of the Perinucleolar Compartment;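 also: plate controls were DMSO wells for no effect and camptothecin positive control wells for full effect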
Details: PC3M PTB-GFP, PNC prevalence imaging, 16 h; at 10 µM; hits give low values
Outline: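 Read-out is percentage of cells bearing a perinucleolar compartment, from automated 20x imaging of fixed, Hoechst-stained PC3M PTB-GFP cells. Cells were seeded 4 h, then exposed 16 h to compound (23 nl of library stock) in duplicate plates.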

SMILES	activity change (PNC), negative = inhibition
Cc1ccc(C(=O)CSc2n[nH]c(-c3ccco3)n2)cc1C	inactive: 5.17%
Cn1c(C(=O)N2CCOCC2)cnc1Sc1ncc(C(F)(F)F)cc1Cl	inconclusive: -52.5%
CCCc1cc(=O)[nH]c(SCc2cc(C(=O)OC)c(C)o2)n1	inactive: 5.46%
c1ccc(Cn2nnc(-c3ccccc3)n2)cc1	active: -100%
O=C(CCc1ccc(S(=O)(=O)NCc2ccccc2)cc1)NCc1ccco1	inactive: 2.48%
Cc1ccc(CNC(=O)c2cnccn2)cc1	inactive: 28.3%
CC(=O)Nc1cccc(-c2cnc3ccccc3n2)c1	inconclusive: -44.8%
CC(C)c1ccc(O)c(NC(=O)c2cccnc2)c1	inactive: -13.9%
COCC(C)n1c(C)cc(C(=O)COC(=O)c2oc3ccccc3c2C)c1C (stereo unspecified)	inconclusive: -30.6%
Cc1nc2ncnn2c(C)c1CCC(=O)N1CCN(c2ccccn2)CC1	inconclusive: -32%
Cc1ccc(C2CC(=O)NC(SCc3ccccc3)=C2C#N)o1 (stereo unspecified)	inactive: -25.9%
Cn1c(COc2ccc(Cl)cc2)nnc1SCC(=O)Nc1ccc2c(c1)CCC2	inconclusive: -72.9%
CCOP(=O)(OCC)c1nc(-c2cccc3ccccc23)oc1NCc1ccccc1	inconclusive: -63.1%
O=S1(=O)CC(NCc2ccccc2)C(Nc2ccccc2)C1 (stereo unspecified)	inactive: -12.7%
CCSc1oc(-c2ccco2)nc1S(=O)(=O)c1ccc(F)cc1	inconclusive: -53.4%
CN(C)CCN(C(=O)c1cc(Cl)sc1Cl)c1nc2ccc(F)cc2s1	inconclusive: -59.1%
CN(Cc1ccccc1)C(=O)CC(c1ccccc1)c1cc(Cl)ccc1O (stereo unspecified)	inactive: -9.75%
COc1ccc(O)c(/C=N/Nc2nc(Nc3ccccc3)nc(-n3nc(C)cc3C)n2)c1	inconclusive: -48.5%
Cn1cc(/C=C2\SC(=S)N(NC(=O)c3ccccc3)C2=O)c2ccccc21	inactive: -17.4%
CCOc1ccccc1Nc1nnc(SCC(=O)NC(=O)c2cccn2C)s1	inactive: -27%
O=C(Nc1ccc(OCC(=O)N2CCOCC2)cc1)c1cncc(Br)c1	inconclusive: -37.4%
N#Cc1ccccc1Sc1ccccc1C(=O)OCC(=O)NC1CCCCC1	inactive: 33.1%
CCCOn1c(OCC(C)C)nc2ccccc2c1=O	inactive: 24.4%
COc1ccc(N=C2C(=O)N3CCCc4cccc2c43)cc1	inactive: 37.2%
O=C1C2CC=CCC2C(=O)N1c1cccc(OS(=O)(=O)c2ccc3ccccc3c2)c1 (stereo unspecified)	inactive: -0.738%
Cc1nn(-c2ccccc2)c2sc(C(=O)N3CCc4ccccc4C3)cc12	inactive: -9.34%
